Data reported in patent US7425631B2 (Amgen Inc., priority 2003, dated 2008).
Some results were stated once for a whole list of compounds, not compound by compound.

Target: T1, human B1 receptor (Homo sapiens, UniProt P46663)
T1 construct: expressed in transfected cells
T1 sequence (P46663 1-353): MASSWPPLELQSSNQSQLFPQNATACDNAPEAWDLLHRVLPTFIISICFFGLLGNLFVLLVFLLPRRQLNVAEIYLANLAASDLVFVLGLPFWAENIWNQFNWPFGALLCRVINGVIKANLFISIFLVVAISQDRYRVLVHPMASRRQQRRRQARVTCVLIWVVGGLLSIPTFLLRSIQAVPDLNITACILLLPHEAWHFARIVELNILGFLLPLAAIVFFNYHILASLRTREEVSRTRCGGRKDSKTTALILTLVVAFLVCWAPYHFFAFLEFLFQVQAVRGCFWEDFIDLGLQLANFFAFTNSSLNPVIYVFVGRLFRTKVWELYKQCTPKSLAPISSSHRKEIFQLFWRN
Experiment: In vitro assay of human B1 receptor function using calcium flux (aequorin luminescence)
Type: cell-based
Settings: CHO D-/hB1/Aequorin cells, agonist 20 nM des-Arg10-Kallidin (EC80); read-out: binding IC50's to hB1 receptor function
Experimental: Activation of the Gq linked B1 receptor results in an increase in intracellular calcium. […] Aequorin is a 21-kDa photoprotein that forms a bioluminescent complex when linked to the chromophore cofactor coelenterazine.
Following coelenterazine incubation, an automated flash-luminometer platform was used to dispense the B1 antagonist compounds (dissolved in DMSO and diluted with buffer to the desired concentration (final DMSO concentration <1% DMSO)) to the cell plate, a CCD camera situated underneath the cell plate took 12 images of the cell plate at 5 second intervals to determine if there was any agonist activity with the compounds. The hB1 agonist, des-Arg10-Kallidin, was added to the cell plate and another 12 images were recorded to determine the IC50 of the antagonist(s).

| Compound | IC50 [µM] |
| --- | --- |
| O=C(C[C@@H](NS(=O)(=O)c1cc(Cl)cc(Cl)c1)c1ccccc1)NC1CCOc2cc(CN3CCCCC3)ccc21 (stereo in doubt) [Example 1h, 3-(3,5-Dichloro-benzenesulfonylamino)-3-phenyl-N-(7-piperidin-1-ylmethyl-chroman-4-yl)-propionamide] | < 0.1 |
| CN1c2cc(CN3CCCCC3)ccc2C(NC(=O)C[C@@H](NS(=O)(=O)c2ccc3ccccc3c2)c2ccccc2)CS1(=O)=O (stereo in doubt) [Example 13, 3-(Naphthalen-2-yl-sulfonylamino)-N-(1-methyl-2,2-dioxo-7-piperidin-1-ylmethyl-1,2,3,4-tetrahydro-2λ^6-benzo[c][1,2]thiazin-4-yl)-3-phenyl-propionamide] | < 0.1 |
| CC(C)CNCCCc1ccc2c(c1)CCC[C@H]2NC(=O)C[C@@H](NS(=O)(=O)c1cccc(C(F)(F)F)c1)c1ccccc1 (stereo in doubt) [Example 215, N-[6-(3-Isobutylamino-propyl)-1,2,3,4-tetrahydro-naphthalen-1-yl]-3-phenyl-3-(3-trifluoromethyl-benzenesulfonylamino)-propionamide] | < 0.1 |
| O=C(CC(NS(=O)(=O)c1cccc(C(F)(F)F)c1)c1ccc(F)cc1)N[C@@H]1CCCc2cc(CN3CCCCC3)ccc21 (stereo in doubt) [ba, (3S)-3-(4-fluorophenyl)-N-((1R)-6-(1-piperidinylmethyl)-1,2,3,4-tetrahydro-1-naphthalenyl)-3-(((3-(trifluoromethyl)phenyl)sulfonyl)amino)propanamide] | < 0.1 |
| CC(C)(C)NCc1ccc2c(c1)CCC[C@H]2NC(=O)CC(NS(=O)(=O)c1cccc(C(F)(F)F)c1)c1ccc(Cl)cc1 (stereo in doubt) [fd, N-[6-(tert-Butylamino-methyl)-1,2,3,4-tetrahydro-naphthalen-1-yl]-3-(4-chloro-phenyl)-3-(3-trifluoromethyl-benzenesulfonylamino)-propionamide] | < 0.1 |
| CC(C)(C)NCc1ccc2c(c1)CCC[C@H]2NC(=O)CC(NS(=O)(=O)c1cccc(C(F)(F)F)c1)c1cc(Cl)cc(Cl)c1 (stereo in doubt) [ff, N-[6-(tert-Butylamino-methyl)-1,2,3,4-tetrahydro-naphthalen-1-yl]-3-(3,5-dichloro-phenyl)-3-(3-trifluoromethyl-benzenesulfonylamino)-propionamide] | < 0.1 |
| O=C(C[C@@H](NS(=O)(=O)c1cccc(C(F)(F)F)c1)c1ccccc1)NC1CCOc2cc(CN3CCCCC3)ccc21 (some centres unmarked) [Example 1e, 3-Phenyl-N-(7-piperidin-1-ylmethyl-chroman-4-yl)-3-(3-trifluoromethyl-benzenesulfonylamino)-propionamide] | < 0.1 |
| O=C(C[C@@H](NS(=O)(=O)c1ccc(Cl)c(Cl)c1)c1ccccc1)NC1CCOc2cc(CN3CCCCC3)ccc21 (some centres unmarked) [Example 1f, 3-(3,4-Dichloro-benzenesulfonylamino)-3-phenyl-N-(7-piperidin-1-ylmethyl-chroman-4-yl)-propionamide] | < 0.1 |
| CC(C)N(C)Cc1ccc2c(c1)OCCC2NC(=O)C[C@@H](NS(=O)(=O)c1ccc2ccccc2c1)c1ccccc1 (some centres unmarked) [Example 3b] | < 0.1 |
| CC(C)CN(C)Cc1ccc2c(c1)OCCC2NC(=O)C[C@@H](NS(=O)(=O)c1ccc2ccccc2c1)c1ccccc1 (some centres unmarked) [Example 3d, N-{7-[(Isobutyl-methyl-amino)-methyl]-chroman-4-yl}-3-(naphthalen-2-yl-sulfonylamino)-3-phenyl-propionamide] | < 0.1 |
| CN(Cc1ccc2c(c1)OCCC2NC(=O)C[C@@H](NS(=O)(=O)c1ccc2ccccc2c1)c1ccccc1)C(C)(C)C (some centres unmarked) [Example 3e, N-{7-[(tert-Butyl-methyl-amino)-methyl]-chroman-4-yl}-3-(naphthalen-2-yl-sulfonylamino)-3-phenyl-propionamide] | < 0.1 |
| CCN(Cc1ccc2c(c1)OCCC2NC(=O)C[C@@H](NS(=O)(=O)c1ccc2ccccc2c1)c1ccccc1)C(C)(C)C (some centres unmarked) [Example 3f, N-{7-[(tert-Butyl-ethyl-amino)-methyl]-chroman-4-yl}-3-(naphthalen-2-yl-sulfonylamino)-3-phenyl-propionamide] | < 0.1 |
| C[C@@H]1CC[C@@H](C)N1Cc1ccc2c(c1)OCCC2NC(=O)C[C@@H](NS(=O)(=O)c1ccc2ccccc2c1)c1ccccc1 (stereo partly drawn) [Example 3h, N-[7-(2R, 5R-Dimethyl-pyrrolidin-1-ylmethyl)-chroman-4-yl]-3-(naphthalen-2-yl-sulfonylamino)-3-phenyl-propionamide] | < 0.1 |
| CC(C)(C)NCc1ccc2c(c1)OCCC2NC(=O)C[C@@H](NS(=O)(=O)c1ccc2ccccc2c1)c1ccccc1 (some centres unmarked) [Example 3i, N-[7-(tert-Butylamino-methyl)-chroman-4-yl]-3-(naphthalen-2-yl-sulfonylamino)-3-phenyl-propionamide] | < 0.1 |
| CCN(CC)Cc1ccc2c(c1)OCCC2NC(=O)C[C@@H](NS(=O)(=O)c1ccc2ccccc2c1)c1ccccc1 (some centres unmarked) [Example 3l, N-(7-Diethylaminomethyl-chroman-4-yl)-3-(naphthalen-2-yl-sulfonylamino)-3-phenyl-propionamide] | < 0.1 |
| O=C(C[C@@H](NS(=O)(=O)c1cccc(C(F)(F)F)c1)c1ccccc1)N[C@@H]1CCOc2cc(CN3CCCCC3)ccc21 [Example 166, (3R)-3-Phenyl-N-((4R)-7-(1-piperidinylmethyl)-3,4-dihydro-2H-chromen-4-yl)-3-(((3-(trifluoromethyl)phenyl)sulfonyl)amino)propanamide] | < 0.1 |
| O=C(C[C@@H](NS(=O)(=O)c1cccc(C(F)(F)F)c1)c1ccccc1)N[C@@H]1CCOc2cc(CN3CCOCC3)ccc21 [Example 167, (3R)-N-((4R)-7-(4-Morpholinylmethyl)-3,4-dihydro-2H-chromen-4-yl)-3-phenyl-3-(((3-(trifluoromethyl)phenyl)sulfonyl)amino)propanamide] | < 0.1 |
| O=C(C[C@@H](NS(=O)(=O)c1ccc(Cl)c(Cl)c1)c1ccccc1)N[C@@H]1CCOc2cc(CN3CCCCC3)ccc21 [Example 168, (3R)-3-(((3,4-Dichlorophenyl)sulfonyl)amino)-3-phenyl-N-((4R)-7-(1-piperidinylmethyl)-3,4-dihydro-2H-chromen-4-yl)propanamide] | < 0.1 |
| O=C(C[C@@H](NS(=O)(=O)c1ccc(Cl)c(Cl)c1)c1ccccc1)N[C@@H]1CCOc2cc(CN3CCOCC3)ccc21 [Example 169, (3R)-3-(((3,4-Dichlorophenyl)sulfonyl)amino)-N-((4R)-7-(4-morpholinylmethyl)-3,4-dihydro-2H-chromen-4-yl)-3-phenylpropanamide] | < 0.1 |
| CN1c2cc(CN3CCCCC3)ccc2[C@H](NC(=O)C[C@@H](NS(=O)(=O)c2ccc3ccccc3c2)c2ccccc2)CS1(=O)=O [Example 174, (3R)-N-((4S)-1-Methyl-2,2-dioxido-7-(1-piperidinylmethyl)-3,4-dihydro-1H-2,1-benzothiazin-4-yl)-3-((2-naphthalenylsulfonyl)amino)-3-phenylpropanamide] | < 0.1 |
| CN1c2cc(CN3CCCCC3)ccc2[C@@H](NC(=O)C[C@@H](NS(=O)(=O)c2ccc3ccccc3c2)c2ccccc2)CS1(=O)=O [Example 175, (3R)-N-((4R)-1-Methyl-2,2-dioxido-7-(1-piperidinylmethyl)-3,4-dihydro-1H-2,1-benzothiazin-4-yl)-3-((2-naphthalenylsulfonyl)amino)-3-phenylpropanamide] | < 0.1 |
| O=C(C[C@@H](NS(=O)(=O)c1cccc(C(F)(F)F)c1)c1ccccc1)N[C@@H]1CCc2cc(CN3CCOCC3)ccc21 [Example 180, (3R)-N-((1R)-5-(4-Morpholinylmethyl)-2,3-dihydro-1H-inden-1-yl)-3-phenyl-3-(((3-(trifluoromethyl)phenyl)sulfonyl)amino)propanamide] | < 0.1 |
| CC(C)(C)NCc1ccc2c(c1)OCC[C@H]2NC(=O)C[C@@H](NS(=O)(=O)c1ccc2ccccc2c1)c1ccccc1 [Example 182, (3R)-N-((4R)-7-(((1,1-Dimethylethyl)amino)methyl)-3,4-dihydro-2H-chromen-4-yl)-3-((2-naphthalenylsulfonyl)amino)-3-phenylpropanamide] | < 0.1 |
| O=C(C[C@H](Cc1ccccc1)NS(=O)(=O)c1ccc(Cl)c(Cl)c1)N[C@@H]1CCOc2cc(CN3CCCCC3)ccc21 [Example 184, (3S)-3-(((3,4-Dichlorophenyl)sulfonyl)amino)-4-phenyl-N-((4R)-7-(1-piperidinylmethyl)-3,4-dihydro-2H-chromen-4-yl)butanamide] | < 0.1 |
| O=C(C[C@@H](NS(=O)(=O)c1cccc(C(F)(F)F)c1)c1ccccc1)N[C@@H]1CCOc2cc(CN3CCC(F)CC3)ccc21 [Example 185, (3R)-N-((4R)-7-((4-Fluoro-1-piperidinyl)methyl)-3,4-dihydro-2H-chromen-4-yl)-3-phenyl-3-(((3-(trifluoromethyl)phenyl)sulfonyl)amino)propanamide] | < 0.1 |
| CC(C)(C)NCc1ccc2c(c1)OCC[C@H]2NC(=O)C[C@@H](NS(=O)(=O)c1ccc(F)c(Cl)c1)c1ccccc1 [Example 191, (3R)-3-(((3-Chloro-4-fluorophenyl)sulfonyl)amino)-N-((4R)-7-(((1,1-dimethylethyl)amino)methyl)-3,4-dihydro-2H-chromen-4-yl)-3-phenylpropanamide] | < 0.1 |
